# Library screening results

Measurements from “University of Dundee, Small-Polar-MMV Screening Library” (2021), ChEMBL document CHEMBL3988442.

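Viability assay of Plasmodium falciparum sporozoites; the read-out is not stated. The concentration is filed as 10 mM, unlikely as a test dose, so the dose is not known. Higher reads as lower viability (inferred: compounds with an IC50 in retests scored well above the rest). Strong results were mostly tested again. Size under these conditions: about 34,000 compounds, about 280 of them at 50% or above in at least one test.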

Each number is a percent effect as filed. How 0% and 100% were set is not recorded. Most values in the screen are low, and negative values occur. Compounds were drawn at random from those tested, without regard to their results. Two or more numbers in one place are separate tests of the same structure; such repeats can differ widely.

| # | structure | percent effect |
|---|---|---|
| 1 | `COCC(O)CN(C)c1cc(C(F)(F)F)nc(-c2cccnc2)n1` (stereo not drawn) | -11.52% |
| 2 | `CC(=O)c1cccc(NC(=O)Cn2nc(-c3cccs3)oc2=O)c1` | 13.29% |
| 3 | `O=C(N[C@@H]1CCC[C@@H](N2CCOCC2)[C@@H]1O)c1cc2ccccc2[nH]1` | 9.956% |
| 4 | `Cc1nc(C2CCCN2C(=O)c2cc3c(s2)CCCC3)no1` (stereo not drawn) | -6.925% & -36.73% & -43.66% |
| 5 | `CCOCC(O)CN1CCN(C(=O)Cc2ccccc2C)CC1` (stereo not drawn) | -3.792% |
| 6 | `[H][C@]12CCN(C(=O)NC(C)C)CC[C@@]1([H])S(=O)(=O)N(Cc1ccccc1)C2` | 3.2% |
| 7 | `CCOCC1CC2(CCN(C(=O)c3cscn3)CC2)CO1` (stereo not drawn) | -0.9732% |
| 8 | `Cn1cc(CN2CCC(c3cc(CCO)[nH]n3)C2)cn1` (stereo not drawn) | 3.626% |
| 9 | `CCc1ccc(OCC(O)CN2CCN(S(C)(=O)=O)CC2)cc1` (stereo not drawn) | 2.312% |
| 10 | `Cc1cnn(CC2CCCN2CC(=O)Nc2cc(C)on2)c1` (stereo not drawn) | -3.309% |
| 11 | `Cn1nccc1C(=O)N1CCCC1c1[nH]ncc1C(N)=O` (stereo not drawn) | -4.213% |
| 12 | `C=C(Br)CN(C)C1CCN(CCc2ccccn2)CC1` | 13.67% |
| 13 | `CO[C@H]1C[C@@H](O)C12CCN(C(=O)CCCOc1ccccc1)CC2` | 88.4% & 94.39% |
| 14 | `CCN1CCN(Cc2c(C3CCCC3)[nH]c3ncccc23)CC1` | -0.9993% |
| 15 | `Cn1ccc(C(=O)NCc2ccc(CN3CCCC3)cc2)cc1=O` | 4.739% |
| 16 | `Cc1ccc(NC2CCN(C(=O)c3cc[nH]n3)CC2)nn1` | -15.5% |
| 17 | `O=C(Nc1cccc(Cl)c1)c1nn(C2CCS(=O)(=O)C2)c2c1CCCC2` (stereo not drawn) | 70.24% & 80.75% & 81.2% |
| 18 | `Cc1cc(C)c2c(c1)C(NCc1c(C)nn(C)c1N(C)C)CCO2` (stereo not drawn) | -0.7613% |
| 19 | `CNS(=O)(=O)c1cccc(C(=O)N(C)Cc2ccsc2)c1` | 5.08% |
| 20 | `CN(CC(N)=O)CC(=O)N1CC=C(c2ccccc2)CC1` | 9.76% |
| 21 | `Cc1cnccc1CN1C[C@@H](O)[C@H](Oc2ccccc2)C1` | -8.412% |
| 22 | `N#Cc1cccnc1N1CCCN(C(=O)CCc2nccs2)CC1` | 8.64% |
| 23 | `CC(NCCCc1cnn(C)c1)c1ccc(Br)s1` (stereo not drawn) | 2.336% |
| 24 | `Cc1nccn1-c1cc(CNC(=O)CCS(=O)(=O)C2CCCC2)ccn1` | 9.964% |
| 25 | `CC(=O)c1c(F)cccc1NCC(O)C1CC1` (stereo not drawn) | -1.362% |
| 26 | `O=C(c1cccc2c1OCO2)N1CCCC(n2ccnc2)C1` (stereo not drawn) | 13.39% |
| 27 | `Cc1cccc(N2CCN(C(=O)Nc3cnn(CC(N)=O)c3)CC2)c1` | 9.984% |
| 28 | `c1ccc(-c2cc(CNCCN3CCOCC3)c3nnnn3c2)cc1` | 21.32% |
| 29 | `O=C(CNC(=O)N1CCc2c([nH]c3ccc(Cl)cc23)C1)NCCCO` | -26.49% & -16.69% |
| 30 | `O=C(O)C(F)(F)F.O=C1COC2(CCN(Cc3ccc(F)cc3)CC2)CN1` | -12.85% |
| 31 | `CCn1c(CN2CCN(CC(N)=O)CC2)nc2c(F)cccc21` | 2.803% |
| 32 | `Cc1cc(C)n(CC2CCCN2C(=O)c2cnc3n[nH]c(C)c3c2)n1` (stereo not drawn) | 0.8778% |
| 33 | `CCc1n[nH]c(C2CN(C(=O)c3cc4c(s3)CCC4)CCO2)n1` (stereo not drawn) | -14.26% & 8.971% & -7.839% |
| 34 | `CCc1ncncc1C(=O)N1CCN(Cc2ccco2)CC1` | -1.874% |
| 35 | `CC(C)c1noc(C(C)N2CCN(Cc3ccco3)CC2)n1` (stereo not drawn) | -0.2445% |
| 36 | `CCn1nc2c(cc1=O)CN(c1nc3ccccc3s1)CC2` | 9.897% & 10.62% & 31.36% |
| 37 | `Cc1nc(-c2c(C)noc2C)cc(C2CCN(S(=O)(=O)N(C)C)CC2)n1` | 10.55% |
| 38 | `Cc1ccccc1OCCCC(=O)NC(C)c1nnc2n1CCC2` (stereo not drawn) | 1.03% |
| 39 | `Cc1ccc(Oc2ncccc2CNC(=O)C2COC(=O)N2)c(F)c1F` (stereo not drawn) | -9.311% |
| 40 | `O=C(O)C(F)(F)F.O=C(O)C(F)(F)F.c1cncc(-c2ncnc3c2CCN(Cc2ccsc2)CC3)c1` | 14.3% |
| 41 | `CC(=O)Nc1nc(C2CCN(C(=O)c3ccncc3)CC2)cs1` | 11.73% |
| 42 | `OCCC1CN(C2CCC2)CCN1C1CCCC1` (stereo not drawn) | -17.92% |
| 43 | `O=C(O)C(F)(F)F.[H][C@@]12CCN(c3cccnc3)C[C@]1([H])CN(C(=O)CC1CC1)C2` | -4.152% |
| 44 | `CN1CCCC1CNC(=O)CCCOc1cccc(Br)c1` (stereo not drawn) | 6.19% |
| 45 | `CC(C)COCc1cncc2c1CCN(C(=O)c1cscn1)C2.O=C(O)C(F)(F)F` | 5.063% |
| 46 | `CSc1ccc(CNC2CCN(CCc3ccncc3)CC2)cc1` | -6.509% |
| 47 | `Cc1ccc2c(n1)N(Cc1cccnc1)CCN(C(=O)C1CC=CC1)C2` | 14% |
| 48 | `CC(C)N1CC(C(=O)NCCOc2ccc3c(c2)OCO3)CC1=O` (stereo not drawn) | 13.94% |
| 49 | `CC(NC(=O)CCCOc1ccccc1Cl)c1ccncc1` (stereo not drawn) | -0.5903% |
| 50 | `CC(C)c1nnc2n1CCN(C(=O)CN1Cc3ccccc3C1=O)C2` | 4.617% |
| 51 | `Cc1cnc(Nc2nccnc2C2CCN(C)CC2)s1` | -16.26% |
| 52 | `Cc1ccc(OCC(=O)NS(=O)(=O)c2c(C)noc2C)cc1C` | -1.288% |
| 53 | `O=S(=O)(CCNCc1cccc2c1OCCO2)N1CCOCC1` | -11.41% |
| 54 | `CCN(CC)CCCNCc1cc2cccc(C)c2[nH]c1=O` | 8.266% |
| 55 | `[H][C@]12CCC[C@@]1(COCC1CCOCC1)CN(C(=O)c1ccncn1)C2` | 10.82% |
| 56 | `CC(c1ccncc1)N(CCN(C)C)C(=O)Nc1ccc(Cl)cc1` (stereo not drawn) | -10.81% |
| 57 | `O=C(O)C(F)(F)F.O=C(O)C(F)(F)F.c1ccc(O[C@@H]2CO[C@@]3(CCCN(CC4CCOCC4)C3)C2)nc1` | -13.11% |
| 58 | `O=C1CCC(=O)N1c1nn(Cc2ccc(F)cc2)cc1Cl` | 13.11% |
| 59 | `O=C(O)C(F)(F)F.[H][C@@]12CCN(c3nnc(C)s3)C[C@@]1([H])O[C@@H](C(=O)N(C)C)C2` | 6.1% |
| 60 | `O=C(CC1CCN(c2cccnn2)CC1)NCCO` | 1.062% |
| 61 | `CC1(C)CN(C(=O)NCCc2ccn(-c3ccccc3)n2)CCO1` | -3.699% |
| 62 | `Cc1cccc(OCCCNC(=O)NC(C)c2nncn2C)c1` (stereo not drawn) | -7.358% |
| 63 | `CCNc1cc2c(nn1)CCN(C(=O)c1cc3ccccc3o1)C2` | 11.17% |
| 64 | `CO[C@@H]1CCN(C(=O)Cc2ccc(F)cc2)[C@@H]1Cc1cccnc1.O=C(O)C(F)(F)F` | -0.5993% |
| 65 | `CCn1c(CC2CCN(C(=O)C3CCOC3)CC2)nn(C)c1=O` (stereo not drawn) | -3.197% |
| 66 | `O=C(O)c1csc(S(=O)(=O)Nc2cccc(OCC(F)(F)F)c2)c1` | 10.97% & 4.232% & 1.109% |
| 67 | `O=C1COc2c(cccc2C(=O)N2CCCC(n3cccn3)C2)N1` (stereo not drawn) | 6.632% |
| 68 | `Cc1ccsc1CN1CCc2nc3ccsc3c(=O)n2CC1.Cl` | 1.251% |
| 69 | `CCc1c(C(=O)N2CCN(c3ncccn3)CC2)cnn1C(C)(C)C` | 4.319% |
| 70 | `Cc1ncc(CN2CCc3c(nc(-c4ccccn4)[nH]c3=O)C2)n1C` | 6.477% |
| 71 | `c1ccc2oc(NC3CCCN(Cc4noc(C5CC5)n4)C3)nc2c1` (stereo not drawn) | -2.235% |
| 72 | `Cc1ccc(CNC(=O)Nc2nnc(C)s2)cn1` | 14.26% |
| 73 | `CCO[C@@H]1CO[C@@]2(CCCN(Cc3scnc3C)C2)C1.O=C(O)C(F)(F)F` | -0.4677% |
| 74 | `CCC1(c2ccc(NS(=O)(=O)c3cccs3)cc2)CCC(=O)NC1=O` (stereo not drawn) | 4.061% |
| 75 | `NC(=O)C1CCCN(c2ccc(CNC(=O)c3cnsn3)cc2)C1` (stereo not drawn) | 7.873% |
| 76 | `Cc1cc(C(F)(F)F)nc(CCNc2nc(C)nc3c2cnn3C)n1` | -21.08% |
| 77 | `Cc1cc(CN2CCN(C(=O)NC(C)Cn3ccnc3)CC2)no1` (stereo not drawn) | -12.04% |
| 78 | `Cc1cc(C(=O)N2CCCCC2)ccc1NS(C)(=O)=O` | 2.193% |
| 79 | `Cc1cnn(C2CCCN(C(=O)c3sccc3C#N)C2)c1` (stereo not drawn) | 0.9662% |
| 80 | `Cc1cc(C2CCCN2C(=O)c2cc3c(s2)CCC3)on1` (stereo not drawn) | 2.308% & -44.23% & -63.85% |
| 81 | `CCOC1COC2(CCN(Cc3cccc(C)n3)CC2)C1.O=C(O)C(F)(F)F` (stereo not drawn) | 2.426% |
| 82 | `Cc1oncc1C(=O)N1CCC2(CCN(Cc3ccccn3)C2=O)C1` (stereo not drawn) | -7.39% |
| 83 | `CN1CCOC(CNCc2csc(C3CCCCC3)n2)C1` (stereo not drawn) | 7.194% |

For reference, 10 entries once more:

CO[C@H]1C[C@@H](O)C12CCN(C(=O)CCCOc1ccccc1)CC2 gave 88.4% & 94.39%.
c1ccc2oc(NC3CCCN(Cc4noc(C5CC5)n4)C3)nc2c1 (stereo not drawn) gave -2.235%.
CO[C@@H]1CCN(C(=O)Cc2ccc(F)cc2)[C@@H]1Cc1cccnc1.O=C(O)C(F)(F)F gave -0.5993%.
CCc1ncncc1C(=O)N1CCN(Cc2ccco2)CC1 gave -1.874%.
Cn1ccc(C(=O)NCc2ccc(CN3CCCC3)cc2)cc1=O gave 4.739%.
CCO[C@@H]1CO[C@@]2(CCCN(Cc3scnc3C)C2)C1.O=C(O)C(F)(F)F gave -0.4677%.
OCCC1CN(C2CCC2)CCN1C1CCCC1 (stereo not drawn) gave -17.92%.
Cc1oncc1C(=O)N1CCC2(CCN(Cc3ccccn3)C2=O)C1 (stereo not drawn) gave -7.39%.
Cc1nc(-c2c(C)noc2C)cc(C2CCN(S(=O)(=O)N(C)C)CC2)n1 gave 10.55%.
CC(NCCCc1cnn(C)c1)c1ccc(Br)s1 (stereo not drawn) gave 2.336%.